Results reported in patent US11739083B2, “Disposable sensor chip with reagent including 2-substituted benzothiazolyl-3-substituted phenyl-5-substituted sulfonated phenyl-2H-tetrazolium salt” (TERUMO KABUSHIKI KAISHA, priority 2016, dated 2023).

Assay: Evaluation of chelation rate (visual colour change after adding nickel ion)
Format: physicochemical
Conditions: for Chelation rate: time to visually confirm colour development after addition of aqueous nickel solution

For “2-benzothiazolyl-3-(4-carboxy-2-methoxyphenyl)-5-[4-(2-sulfoethylcarbamoyl)phenyl]-2H-tetrazolium [Comparative Example 5, reference compound]”, the “chelate formation between formazan and transition metal ion” value (addition of aqueous nickel ion solution, colour tone observed) was “no chelate was formed” and the Chelation rate was “X (the time was longer than one minute)”.
In the case of COc1ccc(S(=O)(=O)O)cc1-[n+]1nc(-c2ccc(S(=O)(=O)O)cc2S(=O)(=O)[O-])nn1-c1nc2ccccc2s1 [Comparative Example 1, reference compound], the Chelation rate is reported as “◯ (the time was one minute or less)”.
With COc1ccc2nc(-n3nc(-c4ccc(S(=O)(=O)O)cc4S(=O)(=O)[O-])n[n+]3-c3ccc(OC)c(S(=O)(=O)O)c3)sc2c1 [Example 1] the Chelation rate was “◯ (the time was one minute or less)”.
With COc1ccc2nc(-n3nc(-c4ccc(S(=O)(=O)O)cc4S(=O)(=O)[O-])n[n+]3-c3cc(S(=O)(=O)O)ccc3OC)sc2c1 [Example 2] the Chelation rate was “◯ (the time was one minute or less)”.
For COc1ccc2nc(-n3nc(-c4ccc(S(=O)(=O)O)cc4S(=O)(=O)O)n[n+]3-c3cc(S(=O)(=O)[O-])c([N+](=O)[O-])cc3OC)sc2c1 [Example 3], the Chelation rate was “◯ (the time was one minute or less)”.
With COc1ccc2nc(-n3nc(-c4ccc(S(=O)(=O)[O-])cc4S(=O)(=O)[O-])n[n+]3-c3ccc([N+](=O)[O-])cc3OC)sc2c1.[Na+] [Example 4] the Chelation rate was “◯ (the time was one minute or less)”.
With COc1ccc2nc(-n3nc(-c4ccc(O)cc4S(=O)(=O)[O-])n[n+]3-c3cc(S(=O)(=O)[O-])ccc3OC)sc2c1.[Na+] [Example 5] the Chelation rate was “◯ (the time was one minute or less)”.
In the case of COc1ccc2nc(-n3nc(-c4ccc(O)c(S(=O)(=O)[O-])c4)n[n+]3-c3cc(S(=O)(=O)[O-])ccc3OC)sc2c1.[Na+] [Example 6], the Chelation rate is reported as “◯ (the time was one minute or less)”.
With COc1ccc2nc(-n3nc(-c4ccccc4S(=O)(=O)[O-])n[n+]3-c3ccc(S(=O)(=O)[O-])cc3)sc2c1.[Na+] [Example 7] the Chelation rate was “◯ (the time was one minute or less)”.
In the case of COc1ccc2nc(-n3nc(-c4cc(S(=O)(=O)[O-])cc(S(=O)(=O)O)c4)n[n+]3-c3cc(S(=O)(=O)O)ccc3OC)sc2c1 [Example 8], the Chelation rate is reported as “◯ (the time was one minute or less)”.
With COc1ccc2nc(-n3nc(-c4cc(S(=O)(=O)O)cc(S(=O)(=O)O)c4)n[n+]3-c3ccc(OC)c(S(=O)(=O)[O-])c3)sc2c1 [Example 9] the Chelation rate was “◯ (the time was one minute or less)”.
In the case of COc1ccc2nc(-n3nc(-c4ccc(S(=O)(=O)O)cc4S(=O)(=O)[O-])n[n+]3-c3ccc(C(=O)O)cc3OC)sc2c1 [Example 10], the Chelation rate is reported as “◯ (the time was one minute or less)”.
With COc1ccc2nc(-n3nc(-c4cc(S(=O)(=O)[O-])cc(S(=O)(=O)O)c4)n[n+]3-c3cc(C(=O)O)ccc3OC)sc2c1 [Example 11] the Chelation rate was “◯ (the time was one minute or less)”.
For COc1ccc2nc(-n3nc(-c4ccc(S(=O)(=O)O)cc4S(=O)(=O)[O-])n[n+]3-c3ccc(OC)c(C(=O)O)c3)sc2c1 [Example 12], the Chelation rate was “◯ (the time was one minute or less)”.
In the case of COc1ccc(S(=O)(=O)O)cc1-[n+]1nc(-c2ccc(S(=O)(=O)O)cc2S(=O)(=O)[O-])nn1-c1nc2cc3c(cc2s1)OCO3 [Example 13], the Chelation rate is reported as “◯ (the time was one minute or less)”.
For COc1ccc(S(=O)(=O)O)cc1-[n+]1nc(-c2ccc(S(=O)(=O)O)cc2S(=O)(=O)[O-])nn1-c1nc2cc3c(cc2s1)OCCO3 [Example 14], the Chelation rate was “◯ (the time was one minute or less)”.
In the case of COc1ccc(-[n+]2nc(-c3ccc(S(=O)(=O)O)cc3S(=O)(=O)O)nn2-c2nc3cc4c(cc3s2)OCO4)cc1S(=O)(=O)[O-] [Example 17], the Chelation rate is reported as “◯ (the time was one minute or less)”.
With COc1ccc(-[n+]2nc(-c3ccc(S(=O)(=O)O)cc3S(=O)(=O)O)nn2-c2nc3cc4c(cc3s2)OCCO4)cc1S(=O)(=O)[O-] [Example 19] the Chelation rate was “◯ (the time was one minute or less)”.
For CCOc1ccc2nc(-n3nc(-c4ccc(S(=O)(=O)O)cc4S(=O)(=O)O)n[n+]3-c3ccc(OC)c(S(=O)(=O)[O-])c3)sc2c1 [Example 20], the Chelation rate was “◯ (the time was one minute or less)”.
For COc1ccccc1-[n+]1nc(-c2ccc(S(=O)(=O)O)cc2S(=O)(=O)[O-])nn1-c1nc2ccccc2s1 [compound 4, reference compound], the Chelation rate was “◯ (the time was one minute or less)”.

Some compounds share one wording; it may come from a single statement.
